{"source": "the supplement of paper PMC8728848", "binders": {"B1": {"name": "Thrombomodulin Extracellular (Mus musculus), P15306 (protein)", "chain": "MLGIFFLGVLAPASLGLSALAKLQPTGSQCVEHECFALFQGPATFLDASQACQRLQGHLMTVRSSVAADVISLLLSQSSMDLGPWIGLQLPQGCDDPVHLGPLRGFQWVTGDNHTSYSRWARPNDQTAPLCGPLCVTVSTATEAAPGEPAWEEKPCETETQGFLCEFYFTASCRPLTVNTRDPEAAHISSTYNTPFGVSGADFQTLPVGSSAAVEPLGLELVCRAPPGTSEGHWAWEATGAWNCSVENGGCEYLCNRSTNEPRCLCPRDMDLQADGRSCARPVVQSCNELCEHFCVSNAEVPGSYSCMCETGYQLAADGHRCEDVDDCKQGPNPCPQLCVNTKGGFECFCYDGYELVDGECVELLDPCFGSNCEFQCQPVSPTDYRCICAPGFAPKPDEPHKCEMFCNETSCPADCDPNSPTVCECPEGFILDEGSVCTDIDECSQGECFTSECRNFPGSYECICGPDTALAGQISKDCDPIPVREDTKEEEGSGEPPVSPTPGSPTGPPSARPVHSGVLIGISIASLSLVVALLALLCHLRKKQGAARAELEYKCASSAKEVVLQHVRTDRTLQKF"}}, "assay_in_all_cases": "glycan array binding signal (z-score within array); higher = stronger binding", "conditions_in_all_cases": "glycan notation: IUPAC condensed, linker removed", "key": {"[1]": {"target": "Gal(b1-3)GlcNAc(b1-2)Man(a1-3)[Gal(b1-3)GlcNAc(b1-2)Man(a1-6)]Man(b1-4)GlcNAc(b1-4)[Fuc(a1-6)]GlcNAc", "procedure,_shortened": "(§1)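 The binding signal is a Z-score computed within each array. Data were drawn from 3228 arrays in the Consortium for Functional Glycomics database, restricted to those with a known protein sequence. Scores were averaged over arrays of the same protein sequence at different concentrations or buffers, and over linkers, and negative values can be taken as non-binding.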"}, "[2]": {"target": "Gal(b1-3)GlcNAc(b1-2)Man(a1-3)[GlcNAc(b1-4)][Gal(b1-3)GlcNAc(b1-2)Man(a1-6)]Man(b1-4)GlcNAc(b1-4)GlcNAc", "procedure,_shortened": "as §1"}, "[3]": {"target": "Gal(b1-3)GlcNAc(b1-2)[Gal(b1-3)GlcNAc(b1-6)]Man(a1-6)[Gal(b1-3)GlcNAc(b1-2)Man(a1-3)]Man(b1-4)GlcNAc(b1-4)GlcNAc", "procedure,_shortened": "as §1"}, "[4]": {"target": "Gal(b1-3)GlcNAc(b1-3)Gal(b1-3)GlcNAc", "procedure,_shortened": "as §1"}, "[5]": {"target": "Gal(b1-3)GlcNAc(b1-3)Gal(b1-4)Glc", "procedure,_shortened": "as §1"}, "[6]": {"target": "Gal(b1-3)GlcNAc(b1-3)Gal(b1-4)GlcNAc", "procedure,_shortened": "as §1"}, "[7]": {"target": "Gal(b1-3)GlcNAc(b1-3)Gal(b1-4)GlcNAc(b1-2)Man(a1-3)[Gal(b1-3)GlcNAc(b1-3)Gal(b1-4)GlcNAc(b1-2)Man(a1-6)]Man(b1-4)GlcNAc(b1-4)GlcNAc", "procedure,_shortened": "as §1"}, "[8]": {"target": "Gal(b1-3)GlcNAc(b1-3)Gal(b1-4)GlcNAc(b1-2)[Gal(b1-3)GlcNAc(b1-3)Gal(b1-4)GlcNAc(b1-6)]Man(a1-6)[Gal(b1-3)GlcNAc(b1-3)Gal(b1-4)GlcNAc(b1-2)Man(a1-3)]Man(b1-4)GlcNAc(b1-4)[Fuc(a1-6)]GlcNAc", "procedure,_shortened": "as §1"}, "[9]": {"target": "Gal(b1-3)GlcNAc(b1-3)Gal(b1-4)GlcNAc(b1-3)Gal(b1-4)GlcNAc(b1-2)[Gal(b1-3)GlcNAc(b1-3)Gal(b1-4)GlcNAc(b1-3)Gal(b1-4)GlcNAc(b1-6)]Man(a1-6)[Gal(b1-3)GlcNAc(b1-3)Gal(b1-4)GlcNAc(b1-3)Gal(b1-4)GlcNAc(b1-2)Man(a1-3)]Man(b1-4)GlcNAc(b1-4)[Fuc(a1-6)]GlcNAc", "procedure,_shortened": "as §1"}, "[10]": {"target": "Gal(b1-3)GlcNAc(b1-3)Gal(b1-4)GlcNAc(b1-6)[Gal(b1-3)GlcNAc(b1-3)]Gal(b1-4)Glc", "procedure,_shortened": "as §1"}, "[11]": {"target": "Gal(b1-3)GlcNAc(b1-3)Gal(b1-4)[Fuc(a1-3)]GlcNAc", "procedure,_shortened": "as §1"}, "[12]": {"target": "Gal(b1-3)GlcNAc(b1-3)Gal(b1-4)[Fuc(a1-3)]GlcNAc(b1-6)[Gal(b1-3)GlcNAc(b1-3)]Gal(b1-4)Glc", "procedure,_shortened": "as §1"}, "[13]": {"target": "Gal(b1-3)GlcNAc(b1-3)GalNAc", "procedure,_shortened": "as §1"}, "[14]": {"target": "Gal(b1-3)GlcNAc(b1-6)Gal(b1-4)GlcNAc", "procedure,_shortened": "as §1"}, "[15]": {"target": "Gal(b1-3)GlcNAc(b1-6)GalNAc", "procedure,_shortened": "as §1"}, "[16]": {"target": "Gal(b1-3)GlcNAc(b1-6)[Gal(b1-3)]GalNAc", "procedure,_shortened": "as §1"}, "Gal(b1-3)GlcNAc6S": {"target": "Gal(b1-3)GlcNAc6S", "procedure,_shortened": "as §1"}, "[17]": {"target": "Gal(b1-3)[Fuc(a1-4)]GlcNAc", "procedure,_shortened": "as §1"}, "[18]": {"target": "Gal(b1-3)[Fuc(a1-4)]GlcNAc(b1-2)Man", "procedure,_shortened": "as §1"}, "[19]": {"target": "Gal(b1-3)[Fuc(a1-4)]GlcNAc(b1-2)Man(a1-3)[Gal(b1-3)[Fuc(a1-4)]GlcNAc(b1-2)Man(a1-6)]Man(b1-4)GlcNAc(b1-4)[Fuc(a1-6)]GlcNAc", "procedure,_shortened": "as §1"}, "[20]": {"target": "Gal(b1-3)[Fuc(a1-4)]GlcNAc(b1-3)Gal(b1-3)[Fuc(a1-4)]GlcNAc", "procedure,_shortened": "as §1"}, "[21]": {"target": "Gal(b1-3)[Fuc(a1-4)]GlcNAc(b1-3)Gal(b1-4)[Fuc(a1-3)]GlcNAc", "procedure,_shortened": "as §1"}, "[22]": {"target": "Gal(b1-3)[Fuc(a1-4)]GlcNAc(b1-6)GalNAc", "procedure,_shortened": "as §1"}, "[23]": {"target": "Gal(b1-3)[GlcNAc(b1-6)]GalNAc", "procedure,_shortened": "as §1"}, "[24]": {"target": "Gal(b1-3)[Neu5Ac(a2-6)]GalNAc", "procedure,_shortened": "as §1"}, "[25]": {"target": "Gal(b1-3)[Neu5Ac(a2-6)]GlcNAc(b1-4)Gal(b1-4)Glc", "procedure,_shortened": "as §1"}, "[26]": {"target": "Gal(b1-3)[Neu5Ac(b2-6)]GalNAc", "procedure,_shortened": "as §1"}, "Gal(b1-4)Gal": {"target": "Gal(b1-4)Gal", "procedure,_shortened": "as §1"}, "[27]": {"target": "Gal(b1-4)GalNAc(a1-3)[Fuc(a1-2)]Gal(b1-4)GlcNAc", "procedure,_shortened": "as §1"}, "[28]": {"target": "Gal(b1-4)GalNAc(b1-3)[Fuc(a1-2)]Gal(b1-4)GlcNAc", "procedure,_shortened": "as §1"}}, "note": "Some of the results follow.", "data": [{"binder": "B1", "values": [{"measurement": "glycan array binding signal (z-score)", "setting": "[1]", "value": -0.735}, {"measurement": "glycan array binding signal (z-score)", "setting": "[2]", "value": 0.655}, {"measurement": "glycan array binding signal (z-score)", "setting": "[3]", "value": 0.399}, {"measurement": "glycan array binding signal (z-score)", "setting": "[4]", "value": -0.59}, {"measurement": "glycan array binding signal (z-score)", "setting": "[5]", "value": -0.39}, {"measurement": "glycan array binding signal (z-score)", "setting": "[6]", "value": -0.646}, {"measurement": "glycan array binding signal (z-score)", "setting": "[7]", "value": -0.991}, {"measurement": "glycan array binding signal (z-score)", "setting": "[8]", "value": 0.113}, {"measurement": "glycan array binding signal (z-score)", "setting": "[9]", "value": 0.543}, {"measurement": "glycan array binding signal (z-score)", "setting": "[10]", "value": -0.013}, {"measurement": "glycan array binding signal (z-score)", "setting": "[11]", "value": -1.08}, {"measurement": "glycan array binding signal (z-score)", "setting": "[12]", "value": -0.684}, {"measurement": "glycan array binding signal (z-score)", "setting": "[13]", "value": -0.059}, {"measurement": "glycan array binding signal (z-score)", "setting": "[14]", "value": 0.105}, {"measurement": "glycan array binding signal (z-score)", "setting": "[15]", "value": 0.022}, {"measurement": "glycan array binding signal (z-score)", "setting": "[16]", "value": -1.19}, {"measurement": "glycan array binding signal (z-score)", "setting": "Gal(b1-3)GlcNAc6S", "value": 0.533}, {"measurement": "glycan array binding signal (z-score)", "setting": "[17]", "value": -0.053}, {"measurement": "glycan array binding signal (z-score)", "setting": "[18]", "value": -0.285}, {"measurement": "glycan array binding signal (z-score)", "setting": "[19]", "value": 2.94}, {"measurement": "glycan array binding signal (z-score)", "setting": "[20]", "value": -0.811}, {"measurement": "glycan array binding signal (z-score)", "setting": "[21]", "value": -0.158}, {"measurement": "glycan array binding signal (z-score)", "setting": "[22]", "value": -0.971}, {"measurement": "glycan array binding signal (z-score)", "setting": "[23]", "value": 0.373}, {"measurement": "glycan array binding signal (z-score)", "setting": "[24]", "value": -0.132}, {"measurement": "glycan array binding signal (z-score)", "setting": "[25]", "value": -1.03}, {"measurement": "glycan array binding signal (z-score)", "setting": "[26]", "value": -1.11}, {"measurement": "glycan array binding signal (z-score)", "setting": "Gal(b1-4)Gal", "value": -1.25}, {"measurement": "glycan array binding signal (z-score)", "setting": "[27]", "value": 0.516}, {"measurement": "glycan array binding signal (z-score)", "setting": "[28]", "value": -0.664}]}]}
